These are yes or no findings as the source states them, for the method shown. Some binding calls cover weakened binding; strength is not graded here.
Experiments:
Settings in all cases: remark: other sources report otherwise
[1] = target: human IL-17RA on transfected cells (human), Q96F46; assay: saturation binding on BHK cells, experiment 2
[2] = target: human IL-17RA on transfected cells (human), Q96F46; assay: saturation binding on BHK cells, experiment 1
[3] = target: human IL-17RA on transfected cells (human), Q96F46; assay: FACS, MFI over a range of cytokine concentrations, transfected BHK cells
[4] = target: human IL-17RA on transfected cells (human), Q96F46; assay: saturation binding on BHK cells, experiment 3
[5] = target: human IL-17RA on transfected cells (human), Q96F46; assay: FACS, biotinylated cytokine on transfected BHK cells

Measured: binding

B1: human IL-17F, Q96PD4 31-163 (ligand)
chain: RKIPKVGHTFFQKPESCPPVPGGSMKLDIGIINENQRVSMSRNIESRSTSPWNYTVTWDPNRYPSEVVQAQCRNLGCINAQGKEDISMNSVPIQQETLVVRRKHQGCSVSFQLEKVLVTVGCTCVTPVIHHVQ
binds: all assays above
